Measurements taken from PubChem BioAssay AID445 (National Center for Advancing Translational Sciences (NCATS), 2006).
Some of the results follow. Further columns of the screen follow, without active or inactive calls. The list favours compounds with an active or inconclusive main result. Potencies come from curve fits of mixed quality, noted in brackets.

Assay: IkB Signaling
Conditions: ABC-DLBCL IkBa-CBG/CBR dual luciferase ratio (green luciferase fused to IkBa over red control in OCI-Ly3 lymphoma cells), 4 h
How it was run: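 Luminescence ratio of IκBα-fused green versus native red beetle luciferase in OCI-Ly3 cells, 4 h post-doxycycline with compound; red signal alone, scaled from basal (0%) to zero light (-100%), flagged nonspecific or cytotoxic effects.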

[1] = measured here: control luc red channel unless noted
[2] = measured here: IkB-luc green channel
[3] = measured here: control luc red channel

Q: Which AC50 [1] does the source give for CCc1ccccc1NC(=O)Cn1c(=O)nc(-c2ccccc2)c2ccccc21 here?
A: The AC50 was 1.58 µM [falling, full curve, poor fit].

Q: With Cc1ccccc1NC(=O)N1CCCC(c2nc(-c3ccc(C(C)C)cc3)no2)C1 (stereo not drawn) as the compound, how does the AC50 [1] read?
A: Its AC50 is 0.794 µM [falling, full curve].

Q: With CCn1c2c(c(=O)n3ncc(C(=O)Nc4cccc(Cl)c4C)c13)CN(Cc1ccc(OC)cc1)CC2 as the compound, how does the AC50 [1] read?
A: The AC50 was 25.1 µM [falling, single point].

Q: For CCCC(O)c1nc2ccccc2n1CCCCOc1ccc(OC)cc1 (stereo not drawn), which AC50 [1] is on record?
A: Its AC50 is 0.158 µM [falling, full curve].

Q: Which AC50 [1] does the source give for O=S1(=O)Nc2c(ccc3cccnc23)-c2ccccc21 here?
A: The AC50 was 1 µM [rising, partial curve] [measured here: IkB-luc green channel].

Q: For Cc1cc(C)cc(NC(=O)CSc2nncn3c2cc2occc23)c1, which AC50 [1] is on record?
A: Its AC50 is 10 µM [falling, partial curve].

Q: Which AC50 [1] does the source give for O=C(CC1N=C2c3ccccc3N=C(SCc3ccc(F)cc3)N2C1=O)NCc1cccs1 (stereo not drawn) here?
A: Its AC50 is 10 µM [rising, partial curve, poor fit].

Q: Which AC50 [1] does the source give for COC(=O)c1nnn(-c2nonc2N)c1CSc1nc2ccccc2s1 here?
A: The AC50 was 39.8 µM [falling, single point].

Q: With COc1cccc(CNC(=O)Cn2cc3c(n2)-c2c(oc(C(=O)N4CCCC4)c2C)CC3)c1 as the compound, how does the AC50 [1] read?
A: Its AC50 is 15.8 µM [falling, partial curve].

Q: Which AC50 [1] does the source give for CCc1ccc(NC(=O)Cn2ncc3c4ccccc4n(C)c3c2=O)cc1 here?
A: Its AC50 is 10 µM [falling, single point].

Q: With CCCCn1cc(S(=O)(=O)c2ccc(OC)cc2)c(=O)c2cc(F)c(F)cc21 as the compound, how does the AC50 [1] read?
A: Its AC50 is 3.98 µM [falling, partial curve, poor fit].

Q: Which AC50 [1] does the source give for Clc1cccc(-c2csc(-c3nc(-c4ccc(Br)s4)cs3)n2)c1 here?
A: The AC50 was 15.8 µM [rising, partial curve].

Q: For CCOc1ccc(NC(=O)c2cc(S(=O)(=O)NC3CCCC3)ccc2F)cc1, which AC50 [1] is on record?
A: Its AC50 is 12.6 µM [falling, partial curve].

Q: With CCc1ccc(NC(=O)CSc2nc(-c3ccccc3)c(C#N)c(=O)[nH]2)cc1 as the compound, how does the AC50 [1] read?
A: The AC50 was 10 µM [falling, partial curve].

Q: With Cc1ccc(OCc2nc(-c3ccc(C(=O)N4CCN(c5ccc(Cl)cc5)CC4)cc3)oc2C)cc1 as the compound, how does the AC50 [1] read?
A: Its AC50 is 20 µM [falling, partial curve].

Q: With CC(C)CCNC(=O)CSc1c2c(nc3ccc(Cl)cc13)CCCC2 as the compound, how does the AC50 [1] read?
A: Its AC50 is 15.8 µM [falling, partial curve].

Q: With CC(C)Oc1ccc(CNC(=O)Cn2c(=O)oc3ccccc32)cc1 as the compound, how does the AC50 [1] read?
A: Its AC50 is 25.1 µM [falling, single point].

Q: With Cc1cccc(-c2nc(SCC(=O)Nc3cccc(C(F)(F)F)c3)n3[nH]c(=O)cc3n2)c1 as the compound, how does the AC50 [1] read?
A: Its AC50 is 25.1 µM [falling, single point].

Q: Which AC50 [1] does the source give for CC(C)(C)c1nnc2sc(SCC(=O)c3cccs3)nn2c1=O here?
A: Its AC50 is 0.398 µM [falling, full curve].

Q: For CCOc1ccc(CNC(=O)C2CCCN(S(=O)(=O)c3ccc4c(c3)CCCC(=O)N4)C2)cc1 (stereo not drawn), which AC50 [1] is on record?
A: The AC50 was 39.8 µM [falling, single point].

Q: Which AC50 [1] does the source give for Cc1nn(Cc2ccc(Cl)cc2)c(C)c1NC(=O)c1noc2c1CCc1ccccc1-2 here?
A: The AC50 was 5.01 µM [falling, full curve].

Q: With CCN(CC)S(=O)(=O)c1ccc(NC(=O)CCc2c(C)nc3cc(-c4ccc(Cl)cc4)nn3c2C)cc1 as the compound, how does the AC50 [1] read?
A: Its AC50 is 0.0631 µM [falling, full curve].

Q: Which AC50 [1] does the source give for COc1ccc(Cl)cc1NC(=O)CSc1ccc(-c2sc(C)nc2C)nn1 here?
A: The AC50 was 39.8 µM [falling, single point].

Q: Which AC50 [1] does the source give for Nc1ccc2cc3ccccc3cc2c1 here?
A: Its AC50 is 3.16 µM [rising, full curve] [measured here: IkB-luc green channel].

Q: For CCOC(=O)c1cc2c(=O)n3ccccc3nc2n(CCCOC)c1=NC(=O)C(C)(C)Oc1ccc(Cl)cc1, which AC50 [1] is on record?
A: The AC50 was 20 µM [falling, partial curve].

Q: With CCCn1c(NC(=O)C2CCN(S(=O)(=O)c3cccs3)CC2)nc2ccccc21 as the compound, how does the AC50 [1] read?
A: Its AC50 is 15.8 µM [falling, partial curve].

Q: With CCOC(=O)c1c(C)[nH]c(CCC(=O)NCCCN2CCN(c3cc(C)ccc3C)CC2)c1C as the compound, how does the AC50 [1] read?
A: Its AC50 is 39.8 µM [falling, single point].

Q: Which AC50 [1] does the source give for Cc1ccc(C)c(NC(=O)CSc2ncc3c(n2)-c2ccc(Cl)cc2N(C)S3(=O)=O)c1 here?
A: Its AC50 is 31.6 µM [rising, single point] [measured here: IkB-luc green channel].

Q: Which AC50 [1] does the source give for O=C(CCSCc1ccccc1Cl)N1CCN(c2cccc(Cl)c2)CC1 here?
A: Its AC50 is 31.6 µM [falling, partial curve].

Q: For N#CC1=C(N)OC(c2ccccc2)=C(C#N)C1c1ccc2c(c1)OCO2 (stereo not drawn), which AC50 [1] is on record?
A: Its AC50 is 0.794 µM [falling, partial curve].

Q: With CCn1nc(-c2ccccc2)c(-c2ccccc2)c(C(=O)Nc2nc(C)c(C(=O)N(C)C)s2)c1=O as the compound, how does the AC50 [1] read?
A: The AC50 was 31.6 µM [falling, single point].

Q: For CCc1nc2cccnc2n1-c1ccc(CC(=O)Nc2ccc(C)cc2)cc1, which AC50 [1] is on record?
A: Its AC50 is 39.8 µM [falling, single point].

Q: For Cc1c(C(=O)Nc2ccc(N3CCOCC3)cc2)oc2ccccc12, which AC50 [1] is on record?
A: The AC50 was 25.1 µM [falling, partial curve].

Q: Which AC50 [1] does the source give for O=C(Cn1c(=O)n(-c2ccccc2Cl)c(=O)c2sc3ccccc3c21)N1CCCC1 here?
A: The AC50 was 0.01 µM [falling, full curve, poor fit].

Q: With CCOc1cc2sc(N3CCC(C(=O)Nc4ccc(C)cc4)CC3)nc2cc1Br as the compound, how does the AC50 [1] read?
A: Its AC50 is 1.26 µM [falling, full curve].

Q: With COc1ccccc1-c1cc(C(=O)N2CCCCC2)no1 as the compound, how does the AC50 [1] read?
A: Its AC50 is 25.1 µM [falling, partial curve].

Q: For CCc1ccc(CSc2nc(-c3ccc(OC)cc3)nc3c2Cc2c(CO)cnc(C)c2O3)cc1, which AC50 [1] is on record?
A: Its AC50 is 2.51 µM [rising, partial curve].

Q: With COc1ccc(CNC(=O)CN(c2ccccc2OC)S(=O)(=O)c2ccc(C)cc2)cc1 as the compound, how does the AC50 [1] read?
A: Its AC50 is 3.16 µM [falling, partial curve].

Q: Which AC50 [1] does the source give for CC(=O)Nc1cccc(NC(=O)c2c(-c3c(Cl)cccc3Cl)noc2C)c1 here?
A: Its AC50 is 12.6 µM [falling, partial curve].

Q: With Cc1ccc(NC(=O)Cn2ncn3c(cc4ccccc43)c2=O)c(C)c1 as the compound, how does the AC50 [1] read?
A: Its AC50 is 3.98 µM [rising, full curve].

Q: For CCOc1ccc2[nH]c(=O)c(CN(Cc3ccc(F)cc3)C(=O)c3ccco3)cc2c1, which AC50 [2] is on record?
A: Its AC50 is 39.8 µM [falling, single point].

Q: What about the AC50 [3] of the same compound?
A: The AC50 was 39.8 µM [falling, single point].

Q: Which AC50 [1] does the source give for COc1ccccc1CNC(=O)Cc1csc2nc(-c3ccc(Cl)cc3)cn12 here?
A: The AC50 was 10 µM [falling, partial curve].

Q: Which AC50 [1] does the source give for CCOc1cc(CNC(=O)c2ccc(C)c(NC(=O)c3nsc4ccccc34)c2)ccc1OC here?
A: Its AC50 is 0.0251 µM [falling, full curve].

Q: Which AC50 [1] does the source give for Cc1cc(C)cc(NC(=O)CN2C(=O)COc3ccc(S(=O)(=O)Nc4ccccc4)cc32)c1 here?
A: Its AC50 is 15.8 µM [falling, partial curve].

Q: With COc1ccc(NC(=O)C2CCN(c3cc(-c4ccccc4)nc4ncnn34)CC2)cc1OC as the compound, how does the AC50 [1] read?
A: Its AC50 is 31.6 µM [falling, partial curve].

Q: For CCN1CCN(Cc2c(O)ccc3oc(C)c(C(=O)Nc4ccc(OC)c(Cl)c4)c23)CC1, which AC50 [1] is on record?
A: The AC50 was 12.6 µM [falling, partial curve].

Q: For CCOC(=O)c1ccccc1NC(=O)CSc1nc2ncccc2o1, which AC50 [1] is on record?
A: Its AC50 is 15.8 µM [falling, partial curve].

Q: For Cc1ccc2nc(-c3ccncc3)c(Nc3ccccc3C)n2c1, which AC50 [1] is on record?
A: Its AC50 is 39.8 µM [falling, single point].

Q: With CC1=C(c2ccc(C)cc2)S(=O)(=O)N=C1N1CCN(c2ccccc2)CC1 as the compound, how does the AC50 [1] read?
A: The AC50 was 31.6 µM [falling, single point].

Q: With Nc1ccc(C(=O)OCc2nc3ccccc3[nH]2)cc1 as the compound, how does the AC50 [1] read?
A: The AC50 was 2 µM [falling, partial curve].

Q: Which AC50 [1] does the source give for Cc1ccc(CSC2=Nc3ccccc3C3=NC(CC(=O)NC4CCCCC4)C(=O)N23)c(C)c1 (stereo not drawn) here?
A: The AC50 was 12.6 µM [falling, partial curve].

Q: With CCC(C)NC(=O)c1cn(CC)c2ccc(S(=O)(=O)N3CCCCC3)cc2c1=O (stereo not drawn) as the compound, how does the AC50 [1] read?
A: Its AC50 is 7.94 µM [falling, partial curve].

Q: For Cc1ccc(NS(=O)(=O)c2ccc3c4c(cccc24)C(=O)N3)c(C)c1, which AC50 [1] is on record?
A: The AC50 was 20 µM [falling, partial curve].

Q: For Cc1cc(Nc2cccc(C(F)(F)F)c2)ncn1, which AC50 [1] is on record?
A: Its AC50 is 2.51 µM [rising, partial curve].

Q: With CCN1C(=O)C(C(=O)Nc2ccc(OC)cc2)C2CC1(C)Oc1ccccc12 (stereo not drawn) as the compound, how does the AC50 [1] read?
A: Its AC50 is 3.98 µM [falling, full curve].

Q: Which AC50 [1] does the source give for Cc1ccc(-c2nc3sccn3c2Nc2ccccc2C)cc1 here?
A: The AC50 was 25.1 µM [falling, partial curve].

Q: With O=C(NC1CCCCC1)N(Cc1nc2ccccc2c(=O)[nH]1)C1CCCCC1 as the compound, how does the AC50 [1] read?
A: Its AC50 is 20 µM [falling, partial curve].

Q: Which AC50 [1] does the source give for CSCCC(NS(=O)(=O)c1ccc2c(c1)oc(=O)n2C)C(=O)N1CCN(c2cc(Cl)ccc2C)CC1 (stereo not drawn) here?
A: The AC50 was 10 µM [falling, partial curve].

Q: With CCN(CCCNC(=O)c1cc2cc3cc(OC)ccc3nc2s1)c1cccc(C)c1 as the compound, how does the AC50 [1] read?
A: Its AC50 is 10 µM [falling, partial curve].

Q: Which AC50 [1] does the source give for CCC(=O)Oc1c(Sc2ccc(Cl)cc2)c(C)nn1C(C)(C)C here?
A: The AC50 was 10 µM [falling, partial curve].

Q: For O=C(CC(SCCO)c1ccc2c(c1)OCO2)c1cccs1 (stereo not drawn), which AC50 [2] is on record?
A: The AC50 was 20 µM [rising, partial curve].

Q: What about the AC50 [3] of the same compound?
A: Its AC50 is 25.1 µM [falling, single point].
